Results of single-concentration screens

The chains behind the UniProt entries cited, without tags or fusion partners.
UniProt P9WPC5, whole entry: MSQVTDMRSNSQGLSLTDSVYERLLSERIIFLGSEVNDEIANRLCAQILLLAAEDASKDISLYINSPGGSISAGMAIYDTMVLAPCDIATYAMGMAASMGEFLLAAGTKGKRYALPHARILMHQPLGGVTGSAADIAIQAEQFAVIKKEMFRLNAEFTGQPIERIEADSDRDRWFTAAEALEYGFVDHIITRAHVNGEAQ
UniProt P9WPC3, whole entry partner: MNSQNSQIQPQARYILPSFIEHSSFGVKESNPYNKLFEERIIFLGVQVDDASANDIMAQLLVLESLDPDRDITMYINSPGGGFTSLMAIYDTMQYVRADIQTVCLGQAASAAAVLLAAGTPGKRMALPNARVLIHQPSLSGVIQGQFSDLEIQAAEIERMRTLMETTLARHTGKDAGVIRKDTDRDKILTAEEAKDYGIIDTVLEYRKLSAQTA

The filed quantity is “Percent Effect” (%). How 0% and 100% were set is not recorded. Most values in the screen are low, and negative values occur. This is an unselected part of the compounds tested.

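Protease assay of ClpP1P2, read by the AMC dye that it sets free. Target: ClpP1P2, Mycobacterium tuberculosis (UniProt P9WPC5 and UniProt P9WPC3). Concentration: 50 µM. Direction is inferred from only a few compounds that gave an IC50; most scored high, so higher reads as stronger inhibition. Most other retested compounds had strongly negative values. Size under these conditions: about 69,000 compounds, about 10 of them at 50% or above in at least one test.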

CC(C)n1nc2c(cc1=O)CN(c1ncnc3ccccc13)CC2 gave -8.633%.
Cc1nn(C)c2ncc(NC(=O)N(C)Cc3cnn(C)c3)cc12 gave 3.651%.
CN1[C@@H](c2ccccc2)[C@@H](C(=O)NCc2ccncc2)C[C@@]1(C)C(=O)O gave -5.062%.
CC(C)c1nnc(C2CCN(CC(=O)Nc3cccnc3)CC2)o1 gave 2.805%.
Cc1csc(CN(C)C(=O)C2CCC(=O)N(CCN(C)C)C2)n1 (stereo not drawn) gave -13.35%.
COC(=O)C1CN(Cc2ccc(-c3ccncc3)cc2F)C[C@@H](C)O1 (stereo partly drawn) gave 19.28%.
Cc1cc(C)c(S(=O)(=O)Nc2c(C)nc(N3CCCC3)nc2C)cc1C gave -5.52%.
COc1cc(C)nc(N2CCN(C(=O)CCc3ccsc3)CC2)n1 gave -27.54%.
Cc1cc(C)nc(NC2CCc3nc(C)nn3C2)n1 (stereo not drawn) gave -6.085%.
COc1cc(Cl)ccc1C(=O)NCc1n[nH]c(C)n1 gave -1.092%.
Cc1cc(Cc2cccc(C(F)(F)F)c2)cc(C2CCCNC2)n1 (stereo not drawn) gave -2.974%.
Cc1cc(-c2ccccc2C(=O)O)nc(C2CCCN(C)C2)n1 (stereo not drawn) gave 5.711%.
CCCc1nc(C)c(C(=O)NS(=O)(=O)c2ccc(C#N)cc2)s1 gave -9.487%.
O=C1NC(C(=O)NCc2cccnc2Oc2ccc(F)cc2F)CO1 (stereo not drawn) gave -17.41%.
COCCNC(=O)NCc1cc(-c2cccs2)n(C2CCCC2)n1 gave -21.37%.
CCn1cc(C(=O)N2CCOC(c3nc(-c4cccs4)no3)C2)cn1 (stereo not drawn) gave -6.068%.
CS(=O)(=O)N1CCC(c2nnc3ccc(C(=O)N4CCCC4)cn23)C1 (stereo not drawn) gave 12.82%.
CC(=O)N1CCCC1C(=O)NCCOc1cc(C)cc(C)c1 (stereo not drawn) gave 1.842%.
Cc1nc(Nc2ccc(Cl)cn2)sc1C(=O)NC(C)C gave 14.6%.
CC(C)(NS(C)(=O)=O)c1nc(-c2ccc(F)cc2Cl)no1 gave 2.619%.
O=C(Nc1cccnc1)[C@@H]1C[C@H]2OCC[C@H]2N(Cc2nccs2)C1 gave 1.661%.
O=C(Cn1cncn1)NCC1CCN(Cc2ccccc2Cl)CC1 gave -7.643%.
CCn1cc(C(=O)NCC(OC)c2cccc(Cl)c2)cn1 (stereo not drawn) gave -0.08338%.
CN(C)c1ccc(C(=O)N2CCC(c3cc4cnccc4[nH]3)CC2)cc1 gave -2.525%.
CC(C)n1c(=O)nc2n1C(=O)N(c1ccccc1)C2 gave -7.332%.
O=C(NCC1CC1)[C@@H]1CCO[C@@H]2CCN(Cc3ccsc3)C[C@H]21 gave -2.052%.
Cc1cc(C)n(C2CCCN(C(=O)CCOc3cccc(F)c3)C2)n1 (stereo not drawn) gave -39.47%.
O=C(O)c1cc(-c2cccs2)nc2c(Br)cnn12 gave 13.5%.
O=C(NCC(O)c1ccccc1Cl)c1cccc(-n2cnnn2)c1 (stereo not drawn) gave -7.798%.
Cn1c(CN2CCCC(N3CCCCCC3)C2)cc(=O)n(C)c1=O (stereo not drawn) gave -1.458%.

From ChEMBL document CHEMBL3988442, “University of Dundee, Small-Polar-MMV Screening Library” (2021).